No constants are given. Whether binding was seen depends on the method and setting. In cells and extracts the contact can be indirect. A yes stands for co-enrichment or nearness to the bait. Other partners may have been found.

Chains of the proteins cited; added tags and fusions are not shown.
UniProt P35998: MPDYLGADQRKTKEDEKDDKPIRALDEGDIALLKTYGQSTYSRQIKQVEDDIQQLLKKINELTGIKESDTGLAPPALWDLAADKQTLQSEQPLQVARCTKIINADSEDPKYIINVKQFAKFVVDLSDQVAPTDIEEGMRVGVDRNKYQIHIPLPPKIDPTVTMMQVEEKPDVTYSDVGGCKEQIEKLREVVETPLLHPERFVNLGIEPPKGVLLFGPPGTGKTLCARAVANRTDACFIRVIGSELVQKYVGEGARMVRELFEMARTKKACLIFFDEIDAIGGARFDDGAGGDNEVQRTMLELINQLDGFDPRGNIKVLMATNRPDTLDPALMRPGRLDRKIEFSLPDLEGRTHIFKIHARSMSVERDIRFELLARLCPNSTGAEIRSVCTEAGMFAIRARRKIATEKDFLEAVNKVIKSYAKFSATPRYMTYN
UniProt P62195: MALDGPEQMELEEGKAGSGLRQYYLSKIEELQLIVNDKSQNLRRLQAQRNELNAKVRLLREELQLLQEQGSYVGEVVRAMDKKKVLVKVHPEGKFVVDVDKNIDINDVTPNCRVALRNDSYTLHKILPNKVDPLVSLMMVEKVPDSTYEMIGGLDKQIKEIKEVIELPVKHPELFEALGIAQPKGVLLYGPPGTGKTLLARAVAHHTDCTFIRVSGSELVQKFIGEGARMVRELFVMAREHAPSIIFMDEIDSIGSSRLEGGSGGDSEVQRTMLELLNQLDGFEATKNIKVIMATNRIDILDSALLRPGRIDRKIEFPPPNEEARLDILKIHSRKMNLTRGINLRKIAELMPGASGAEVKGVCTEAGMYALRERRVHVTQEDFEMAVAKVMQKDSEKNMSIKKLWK
UniProt O75832: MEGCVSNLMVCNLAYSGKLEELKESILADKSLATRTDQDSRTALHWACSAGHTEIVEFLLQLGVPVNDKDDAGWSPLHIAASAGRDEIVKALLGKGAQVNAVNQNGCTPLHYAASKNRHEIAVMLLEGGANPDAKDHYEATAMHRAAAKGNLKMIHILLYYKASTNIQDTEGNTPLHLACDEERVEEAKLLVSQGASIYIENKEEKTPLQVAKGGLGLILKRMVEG
UniProt Q9UNM6: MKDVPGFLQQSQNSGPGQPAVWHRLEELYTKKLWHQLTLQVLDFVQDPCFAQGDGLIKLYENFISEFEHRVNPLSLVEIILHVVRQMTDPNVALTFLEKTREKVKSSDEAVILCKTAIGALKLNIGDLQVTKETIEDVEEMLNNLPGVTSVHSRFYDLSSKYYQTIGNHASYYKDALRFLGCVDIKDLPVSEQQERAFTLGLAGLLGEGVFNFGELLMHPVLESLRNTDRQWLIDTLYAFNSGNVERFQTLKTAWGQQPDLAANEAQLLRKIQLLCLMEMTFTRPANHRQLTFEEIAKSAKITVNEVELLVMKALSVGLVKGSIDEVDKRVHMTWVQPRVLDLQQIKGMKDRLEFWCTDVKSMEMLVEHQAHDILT
UniProt P05387: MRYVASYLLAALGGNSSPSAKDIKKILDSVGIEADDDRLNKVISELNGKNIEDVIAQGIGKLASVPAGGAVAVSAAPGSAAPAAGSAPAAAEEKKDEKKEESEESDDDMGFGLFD
UniProt O00571: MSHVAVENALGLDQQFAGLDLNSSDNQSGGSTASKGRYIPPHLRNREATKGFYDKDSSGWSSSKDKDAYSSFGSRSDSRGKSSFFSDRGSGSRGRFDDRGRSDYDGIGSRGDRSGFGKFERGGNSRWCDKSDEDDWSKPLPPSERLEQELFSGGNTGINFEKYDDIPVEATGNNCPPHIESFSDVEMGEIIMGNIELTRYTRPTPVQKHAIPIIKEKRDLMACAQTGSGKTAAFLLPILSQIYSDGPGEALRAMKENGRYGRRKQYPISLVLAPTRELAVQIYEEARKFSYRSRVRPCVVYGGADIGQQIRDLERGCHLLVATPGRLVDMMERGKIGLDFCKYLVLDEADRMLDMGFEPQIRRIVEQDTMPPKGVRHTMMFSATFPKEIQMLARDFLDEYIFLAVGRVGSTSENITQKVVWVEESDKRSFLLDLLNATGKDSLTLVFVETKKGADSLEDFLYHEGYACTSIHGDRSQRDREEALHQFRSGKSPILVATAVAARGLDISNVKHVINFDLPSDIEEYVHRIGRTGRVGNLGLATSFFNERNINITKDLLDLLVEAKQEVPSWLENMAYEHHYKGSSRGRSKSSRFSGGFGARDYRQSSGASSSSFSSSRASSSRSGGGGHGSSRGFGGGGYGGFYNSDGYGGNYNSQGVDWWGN
UniProt Q9NXV2: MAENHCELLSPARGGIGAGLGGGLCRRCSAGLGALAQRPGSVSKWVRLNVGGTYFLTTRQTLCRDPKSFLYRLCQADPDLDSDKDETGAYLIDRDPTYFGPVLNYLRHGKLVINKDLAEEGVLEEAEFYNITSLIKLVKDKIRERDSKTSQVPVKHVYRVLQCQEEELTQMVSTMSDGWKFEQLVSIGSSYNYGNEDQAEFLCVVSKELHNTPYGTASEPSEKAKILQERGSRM
UniProt O15372: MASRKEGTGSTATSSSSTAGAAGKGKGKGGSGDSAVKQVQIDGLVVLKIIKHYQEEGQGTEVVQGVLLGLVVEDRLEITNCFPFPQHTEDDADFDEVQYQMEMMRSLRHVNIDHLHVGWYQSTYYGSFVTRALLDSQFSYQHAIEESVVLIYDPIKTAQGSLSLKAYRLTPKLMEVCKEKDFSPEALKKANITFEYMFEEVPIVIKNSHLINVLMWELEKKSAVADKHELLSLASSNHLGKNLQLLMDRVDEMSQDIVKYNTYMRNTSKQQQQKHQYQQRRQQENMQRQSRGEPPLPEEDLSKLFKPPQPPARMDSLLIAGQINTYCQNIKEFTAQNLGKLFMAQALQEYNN
UniProt Q13347: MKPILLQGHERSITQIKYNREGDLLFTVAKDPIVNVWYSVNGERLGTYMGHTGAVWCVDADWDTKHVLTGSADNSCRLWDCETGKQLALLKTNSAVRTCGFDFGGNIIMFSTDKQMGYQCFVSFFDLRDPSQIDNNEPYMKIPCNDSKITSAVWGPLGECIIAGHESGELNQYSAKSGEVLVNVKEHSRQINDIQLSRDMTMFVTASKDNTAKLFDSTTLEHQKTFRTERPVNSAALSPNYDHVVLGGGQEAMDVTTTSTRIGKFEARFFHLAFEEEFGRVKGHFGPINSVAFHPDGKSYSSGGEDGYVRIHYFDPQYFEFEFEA
UniProt Q9UBQ5: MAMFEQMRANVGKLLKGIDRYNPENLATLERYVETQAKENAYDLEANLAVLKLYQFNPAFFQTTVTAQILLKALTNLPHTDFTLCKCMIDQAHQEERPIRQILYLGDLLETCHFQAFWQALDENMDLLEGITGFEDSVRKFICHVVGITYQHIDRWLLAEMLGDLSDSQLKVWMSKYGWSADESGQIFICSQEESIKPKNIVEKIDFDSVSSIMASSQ
UniProt Q9BQA1: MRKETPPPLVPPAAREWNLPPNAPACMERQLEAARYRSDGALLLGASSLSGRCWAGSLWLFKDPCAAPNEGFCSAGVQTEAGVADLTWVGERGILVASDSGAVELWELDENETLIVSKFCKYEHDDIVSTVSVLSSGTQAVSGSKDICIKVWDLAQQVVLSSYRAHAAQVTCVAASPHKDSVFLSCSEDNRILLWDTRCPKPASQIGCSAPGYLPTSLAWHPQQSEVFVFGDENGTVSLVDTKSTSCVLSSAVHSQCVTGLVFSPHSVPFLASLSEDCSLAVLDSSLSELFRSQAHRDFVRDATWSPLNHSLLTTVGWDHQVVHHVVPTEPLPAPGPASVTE
UniProt P54105: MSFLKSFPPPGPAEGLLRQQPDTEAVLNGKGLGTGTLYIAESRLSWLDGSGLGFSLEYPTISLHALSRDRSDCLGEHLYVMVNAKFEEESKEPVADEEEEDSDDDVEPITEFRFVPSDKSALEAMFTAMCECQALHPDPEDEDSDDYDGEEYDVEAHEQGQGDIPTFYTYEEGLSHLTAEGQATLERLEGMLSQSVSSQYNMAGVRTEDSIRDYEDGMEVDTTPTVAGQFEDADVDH
UniProt P43490: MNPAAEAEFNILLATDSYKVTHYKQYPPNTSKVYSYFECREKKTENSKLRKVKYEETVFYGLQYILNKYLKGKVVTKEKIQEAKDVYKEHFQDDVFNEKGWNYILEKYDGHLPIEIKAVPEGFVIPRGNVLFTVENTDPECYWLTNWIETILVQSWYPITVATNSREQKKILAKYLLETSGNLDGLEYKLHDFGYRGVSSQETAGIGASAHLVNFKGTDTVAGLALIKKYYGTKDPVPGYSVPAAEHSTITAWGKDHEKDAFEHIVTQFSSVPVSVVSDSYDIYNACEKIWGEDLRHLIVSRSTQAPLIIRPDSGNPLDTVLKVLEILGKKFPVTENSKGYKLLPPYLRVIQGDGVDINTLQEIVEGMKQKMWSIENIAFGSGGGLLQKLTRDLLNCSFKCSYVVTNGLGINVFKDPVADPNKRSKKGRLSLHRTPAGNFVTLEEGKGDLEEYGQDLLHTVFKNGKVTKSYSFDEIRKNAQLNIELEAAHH
UniProt Q9NR30: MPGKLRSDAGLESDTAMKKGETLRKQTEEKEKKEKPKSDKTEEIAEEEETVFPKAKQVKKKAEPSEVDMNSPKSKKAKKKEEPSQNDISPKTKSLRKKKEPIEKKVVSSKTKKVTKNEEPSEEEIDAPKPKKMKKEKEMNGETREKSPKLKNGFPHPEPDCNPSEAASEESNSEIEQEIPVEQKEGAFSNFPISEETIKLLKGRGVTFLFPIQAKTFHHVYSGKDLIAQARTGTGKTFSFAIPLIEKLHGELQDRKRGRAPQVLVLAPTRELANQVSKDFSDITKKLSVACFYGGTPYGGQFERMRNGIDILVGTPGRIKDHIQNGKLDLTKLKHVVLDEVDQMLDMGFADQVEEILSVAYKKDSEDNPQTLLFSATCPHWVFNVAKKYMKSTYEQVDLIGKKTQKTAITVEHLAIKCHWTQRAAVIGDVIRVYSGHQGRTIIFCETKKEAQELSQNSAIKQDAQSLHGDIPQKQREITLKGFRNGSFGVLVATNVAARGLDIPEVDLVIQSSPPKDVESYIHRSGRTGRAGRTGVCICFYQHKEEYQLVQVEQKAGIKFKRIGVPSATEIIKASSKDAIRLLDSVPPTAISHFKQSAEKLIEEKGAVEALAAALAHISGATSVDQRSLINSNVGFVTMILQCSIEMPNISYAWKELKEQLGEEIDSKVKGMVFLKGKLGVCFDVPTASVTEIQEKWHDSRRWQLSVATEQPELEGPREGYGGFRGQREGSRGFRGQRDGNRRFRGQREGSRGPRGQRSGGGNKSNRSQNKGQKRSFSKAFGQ
UniProt P17844: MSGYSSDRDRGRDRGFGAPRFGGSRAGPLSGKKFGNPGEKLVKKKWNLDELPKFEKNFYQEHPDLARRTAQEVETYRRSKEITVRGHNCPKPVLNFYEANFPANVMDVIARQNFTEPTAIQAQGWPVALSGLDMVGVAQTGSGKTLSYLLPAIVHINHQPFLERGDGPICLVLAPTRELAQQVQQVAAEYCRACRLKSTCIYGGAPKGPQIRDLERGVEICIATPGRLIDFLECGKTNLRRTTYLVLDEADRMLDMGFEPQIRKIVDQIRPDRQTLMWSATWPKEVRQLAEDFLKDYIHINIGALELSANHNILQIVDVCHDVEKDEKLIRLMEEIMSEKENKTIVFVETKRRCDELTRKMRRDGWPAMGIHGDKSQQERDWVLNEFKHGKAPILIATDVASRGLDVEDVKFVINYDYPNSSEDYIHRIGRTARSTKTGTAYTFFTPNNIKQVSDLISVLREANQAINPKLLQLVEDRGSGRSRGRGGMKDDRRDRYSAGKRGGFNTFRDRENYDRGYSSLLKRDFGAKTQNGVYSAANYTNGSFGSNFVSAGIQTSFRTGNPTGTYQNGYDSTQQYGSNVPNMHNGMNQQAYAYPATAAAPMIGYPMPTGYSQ
UniProt Q92841: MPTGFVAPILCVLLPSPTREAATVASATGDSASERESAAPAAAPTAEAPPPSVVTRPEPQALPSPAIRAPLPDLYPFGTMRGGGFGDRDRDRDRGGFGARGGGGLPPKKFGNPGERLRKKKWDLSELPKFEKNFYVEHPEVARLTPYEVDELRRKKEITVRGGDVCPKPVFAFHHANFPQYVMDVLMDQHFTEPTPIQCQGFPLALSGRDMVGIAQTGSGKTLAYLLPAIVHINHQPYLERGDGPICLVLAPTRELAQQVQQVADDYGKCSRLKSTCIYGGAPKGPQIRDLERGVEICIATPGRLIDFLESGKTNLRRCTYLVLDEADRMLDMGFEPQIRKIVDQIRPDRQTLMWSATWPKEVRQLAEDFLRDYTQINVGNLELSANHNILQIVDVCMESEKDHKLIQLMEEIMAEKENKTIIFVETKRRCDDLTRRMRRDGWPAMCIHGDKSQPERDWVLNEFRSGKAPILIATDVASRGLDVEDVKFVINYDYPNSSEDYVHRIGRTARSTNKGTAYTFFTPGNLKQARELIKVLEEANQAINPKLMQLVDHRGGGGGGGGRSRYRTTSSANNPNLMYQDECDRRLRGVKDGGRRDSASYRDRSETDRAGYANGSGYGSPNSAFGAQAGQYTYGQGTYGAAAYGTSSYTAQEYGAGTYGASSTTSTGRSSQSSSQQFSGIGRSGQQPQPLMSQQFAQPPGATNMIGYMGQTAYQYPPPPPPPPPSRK

The values that follow come from article PMC5841321.

The test deals with T1, E3 ubiquitin-protein ligase Midline-1 (UniProt O15344).
T1 sequence: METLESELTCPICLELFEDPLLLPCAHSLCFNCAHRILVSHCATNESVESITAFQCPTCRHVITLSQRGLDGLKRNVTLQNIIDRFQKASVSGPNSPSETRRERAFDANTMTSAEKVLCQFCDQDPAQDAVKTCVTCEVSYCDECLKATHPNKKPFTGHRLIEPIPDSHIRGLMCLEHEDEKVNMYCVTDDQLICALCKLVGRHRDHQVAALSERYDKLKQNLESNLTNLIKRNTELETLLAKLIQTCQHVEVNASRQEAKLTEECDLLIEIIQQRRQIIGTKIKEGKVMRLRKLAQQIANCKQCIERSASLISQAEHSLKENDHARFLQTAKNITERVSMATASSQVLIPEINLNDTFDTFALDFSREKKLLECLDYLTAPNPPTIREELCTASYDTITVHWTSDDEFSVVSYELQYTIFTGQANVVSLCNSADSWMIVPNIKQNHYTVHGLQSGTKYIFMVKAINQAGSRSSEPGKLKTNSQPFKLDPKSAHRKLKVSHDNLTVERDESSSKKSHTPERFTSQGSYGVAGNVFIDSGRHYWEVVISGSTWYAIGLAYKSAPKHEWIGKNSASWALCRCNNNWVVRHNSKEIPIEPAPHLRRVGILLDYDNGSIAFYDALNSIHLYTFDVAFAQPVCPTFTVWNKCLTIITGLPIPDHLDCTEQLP
Nature of the test: affinity purification with mass spectrometry; MID1-FLAG expressed in HEK293T, lysate in TKM buffer (20 mM Tris pH 7.4, 100 mM KCl, 5 mM MgCl2, 0.5% NP40, 1 mM DTT), anti-FLAG M1 agarose overnight at 4 °C, 6 washes; untransfected cells as control; Q-Exactive, MaxQuant, 1% FDR.
On to “26S protease regulatory subunit 4 (from UniProt P62191 1-440)”, for which the binding result is recorded as “binds”.

Take “26S protease regulatory subunit 6A (from UniProt P17980 1-439)”: the binding result was “binds”.

On to “26S protease regulatory subunit 6B (from UniProt P43686 1-418)”, for which the binding entry was “binds”.

With “26S protease regulatory subunit 7 (from UniProt P35998 1-433)”, the binding entry is on record as “binds”.

Consider “26S protease regulatory subunit 8 (from UniProt P62195 1-406)”, for which the binding entry is on record as “binds”.

In the case of “26S protease regulatory subunit 10B (from UniProt P62333 1-389)”, the binding entry was “binds”.

Turning to “26S proteasome non-ATPase regulatory subunit 2 (from UniProt Q13200 1-908)”, the binding entry was “binds”.

As for “26S proteasome non-ATPase regulatory subunit 3 (from UniProt O43242 1-534)”, the binding entry is “binds”.

In the case of “26S proteasome non-ATPase regulatory subunit 4 (from UniProt P55036 1-377)”, the binding entry was “binds”.

On to “26S proteasome non-ATPase regulatory subunit 6 (from UniProt Q15008 1-389)”, for which the binding entry is “binds”.

Regarding “26S proteasome non-ATPase regulatory subunit 7 (from UniProt P51665 1-324)”, the binding entry is “binds”.

Consider “26S proteasome non-ATPase regulatory subunit 10 (from UniProt O75832 1-226)”, for which the binding entry is reported as “binds”.

Turning to “26S proteasome non-ATPase regulatory subunit 12 (from UniProt O00232 1-456)”, the binding entry is recorded as “binds”.

Consider “26S proteasome non-ATPase regulatory subunit 13 (from UniProt Q9UNM6 1-376)”, for which the binding entry was “binds”.

With “26S proteasome non-ATPase regulatory subunit 14 (from UniProt O00487 1-310)”, the binding result is “binds”.

As to “40S ribosomal protein S30 (human (endogenous in HEK293T))”, the binding entry is reported as “binds”.

As to “60S acidic ribosomal protein P2 (from UniProt P05387 1-115)”, the binding entry is recorded as “binds”.

Turning to “ATP-dependent RNA helicase DDX3X (from UniProt O00571 1-662)”, the binding result is “binds”.

Take “Activating signal cointegrator 1 complex subunit 3 (from UniProt Q8N3C0 1-2202)”: the binding result is “binds”.

As to “BTB/POZ domain-containing protein KCTD5 (from UniProt Q9NXV2 1-234)”, the binding entry is “binds”.

Turning to “BTB/POZ domain-containing protein KCTD17 (from UniProt Q8N5Z5 1-314)”, the binding entry is reported as “binds”.

On to “Cell division cycle 5-like protein (from UniProt Q99459 1-802)”, for which the binding result is “binds”.

Consider “Cleavage and polyadenylation specificity factor subunit 6 (from UniProt Q16630 1-551)”, for which the binding entry is “binds”.

On to Coronin-1C (from UniProt Q9ULV4 1-474), for which the binding entry is recorded as “binds”.

Turning to “Double-stranded RNA-binding protein Staufen homolog 1 (from UniProt O95793 1-577)”, the binding entry is recorded as “binds”.

For the substance “E3 ubiquitin-protein ligase UBR5 (from UniProt O95071 1-2799)”, the binding entry is listed as “binds”.

Turning to “Eukaryotic initiation factor 4A-I (from UniProt P60842 1-406)”, the binding result was “binds”.

Take “Eukaryotic initiation factor 4A-III (from UniProt P38919 1-411)”: the binding result is given as “binds”.

Consider “Eukaryotic translation initiation factor 3 subunit B (from UniProt P55884 1-814)”, for which the binding entry is on record as “binds”.

“Eukaryotic translation initiation factor 3 subunit C (from UniProt Q99613 1-913)”: the binding entry is given as “binds”.

In the case of “Eukaryotic translation initiation factor 3 subunit D (from UniProt O15371 1-548)”, the binding result is on record as “binds”.

For “Eukaryotic translation initiation factor 3 subunit E (from UniProt P60228 1-445)”, the binding result is given as “binds”.

Turning to “Eukaryotic translation initiation factor 3 subunit F (from UniProt O00303 1-357)”, the binding result is recorded as “binds”.

As to “Eukaryotic translation initiation factor 3 subunit G (from UniProt O75821 1-320)”, the binding result is listed as “binds”.

With “Eukaryotic translation initiation factor 3 subunit H (from UniProt O15372 1-352)”, the binding entry is listed as “binds”.

As to “Eukaryotic translation initiation factor 3 subunit I (from UniProt Q13347 1-325)”, the binding entry is “binds”.

“Eukaryotic translation initiation factor 3 subunit J (from UniProt O75822 1-258)”: the binding entry was “binds”.

“Eukaryotic translation initiation factor 3 subunit K (from UniProt Q9UBQ5 1-218)”: the binding entry is “binds”.

“Eukaryotic translation initiation factor 3 subunit L (from UniProt Q9Y262 1-564)”: the binding result is listed as “binds”.

On to “Exosome complex component RRP45 (from UniProt Q06265 1-439)”, for which the binding entry was “binds”.

For “Gem-associated protein 4 (from UniProt P57678 1-1058)”, the binding entry is reported as “binds”.

Regarding “Heterogeneous nuclear ribonucleoprotein K (from UniProt P61978 1-463)”, the binding result is on record as “binds”.

For “Heterogeneous nuclear ribonucleoprotein Q (from UniProt O60506 1-623)”, the binding result is on record as “binds”.

As for Importin-8 (from UniProt O15397 1-1037), the binding entry is given as “binds”.

In the case of “Insulin-like growth factor 2 mRNA-binding protein 3 (from UniProt O00425 1-579)”, the binding entry is listed as “binds”.

With “Interleukin enhancer-binding factor 2 (from UniProt Q12905 1-390)”, the binding result is reported as “binds”.

In the case of “Kinesin-like protein KIF11 (from UniProt P52732 1-1056)”, the binding result is “binds”.

Regarding “LIM domain and actin-binding protein 1 (from UniProt Q9UHB6 1-759)”, the binding result is given as “binds”.

Regarding “La-related protein 4 (from UniProt Q71RC2 1-724)”, the binding result was “binds”.

For the substance “La-related protein 4B (from UniProt Q92615 1-738)”, the binding entry is “binds”.

“Methylosome protein 50 (from UniProt Q9BQA1 1-342)”: the binding result is “binds”.

Regarding “Methylosome subunit pICln (from UniProt P54105 1-237)”, the binding entry was “binds”.

For the substance “Microtubule-associated protein 1B (from UniProt P46821 1-2468)”, the binding entry is “binds”.

Take Myosin-9 (from UniProt P35579 1-1960): the binding entry is listed as “binds”.

Take Myosin-10 (from UniProt P35580 1-1976): the binding entry is given as “binds”.

Turning to “Nicotinamide phosphoribosyltransferase (from UniProt P43490 1-491)”, the binding entry is recorded as “binds”.

Regarding “Nuclear cap-binding protein subunit 1 (from UniProt Q09161 1-790)”, the binding result is “binds”.

As to “Nuclease-sensitive element-binding protein 1 (from UniProt P67809 1-324)”, the binding entry is “binds”.

With “Nucleolar GTP-binding protein 2 (from UniProt Q13823 1-731)”, the binding entry is listed as “binds”.

On to “Nucleolar RNA helicase 2 (from UniProt Q9NR30 1-783)”, for which the binding result is “binds”.

As to “Polyadenylate-binding protein 1 (from UniProt P11940 1-636)”, the binding result is listed as “binds”.

In the case of “Probable ATP-dependent RNA helicase DDX5 (from UniProt P17844 1-614)”, the binding result is recorded as “binds”.

For “Probable ATP-dependent RNA helicase DDX17 (from UniProt Q92841 1-729)”, the binding result was “binds”.
